Test results from patent US20210380648.

Molecular target: Egr1 (UniProt P18146)
Assay: activity in cells
Settings: HEK293, indirect, protein in cells, protein details: full-length Egr1 expression plasmid, only the site is given

In the case of “CTGGGGGTGGGGGCA (double strand) [Klotho promoter Egr1 site 3]”, the “activity on this sequence” value (luciferase reporter with Klotho promoter) is reported as “active”.
For “GCGGGGGTG (double strand) [Klotho promoter Egr1 site 2]”, the “activity on this sequence” value (luciferase reporter with -289 or -1800 bp Klotho promoter) was “active”.
